Source: PMC9294000
Results are given in words; binding and its absence hold for the method and conditions named. Some binding calls cover weakened binding; strength is not graded here.

Protein sequences, listed by entry. Tags and fused reporters are not part of them. Residues count along the entry.
UniProt Q96EP0, residues 350-379: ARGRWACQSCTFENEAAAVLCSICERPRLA
UniProt Q9Y6K9, residues 257-346: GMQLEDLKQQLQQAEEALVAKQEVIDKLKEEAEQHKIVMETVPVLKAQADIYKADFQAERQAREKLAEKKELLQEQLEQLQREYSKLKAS

Biological target: human HOIP NZF1 (hHOIP NZF1, aa. 350–379) (human) (UniProt Q96EP0)
Experiment: crystal structure; hHOIP NZF1, hNEMO and linear di-ubiquitin purified separately, mixed in an equimolar ratio; sitting drops, 0.1 M Tris-HCl pH 8.5, 22% v/v PEG Smear Broad; 4.2 Å; heteropentameric complex; both purified

human NEMO (hNEMO, aa. 257–346) (from UniProt Q9Y6K9 257-346) (domain or fragment)
binding: binds weakly
